The whole screen tested about 580,000 compounds, of which about 6,100 (1.1%) were called active. Inconclusive means that the source gave no clear call. Such entries were picked first, then a sample of the others. Calls follow the shape of the dose curve; as a rule, active = well fitted inhibition curve with a large enough effect; inconclusive = small, poorly fitted or top-dose-only effect, or another doubt; inactive = no such curve, though single readings can be large or run the other way. Potencies beside an inconclusive call are fits to weak or partial responses and may not hold up.
target: Polyunsaturated fatty acid lipoxygenase ALOX12 (Homo sapiens) (UniProt P18054); test: Primary qHTS assay for inhibitors of human arachidonate 12S-lipoxygenase (ALOX12): Round 2; details: purified 12hLO, xylenol orange hydroperoxide absorbance; series mostly up to 108 µM
How it was run: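 Hydroperoxide product was detected by ferrous iron/xylenol orange as the 573 to 405 nm absorbance ratio. Arachidonic acid at 40 uM (final) was turned over for 30 min at room temperature by 150 nM human 12hLO, pH 7.0 Hepes buffer, after 15 min compound preincubation.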
Potency is read from the fitted curve at half-maximal effect.

By UniProt entry, the sequences of proteins in these tests, tags left out. Where a name states a change or a piece, a line headed by the entry shows the natural chain unless it says otherwise.
UniProt P18054: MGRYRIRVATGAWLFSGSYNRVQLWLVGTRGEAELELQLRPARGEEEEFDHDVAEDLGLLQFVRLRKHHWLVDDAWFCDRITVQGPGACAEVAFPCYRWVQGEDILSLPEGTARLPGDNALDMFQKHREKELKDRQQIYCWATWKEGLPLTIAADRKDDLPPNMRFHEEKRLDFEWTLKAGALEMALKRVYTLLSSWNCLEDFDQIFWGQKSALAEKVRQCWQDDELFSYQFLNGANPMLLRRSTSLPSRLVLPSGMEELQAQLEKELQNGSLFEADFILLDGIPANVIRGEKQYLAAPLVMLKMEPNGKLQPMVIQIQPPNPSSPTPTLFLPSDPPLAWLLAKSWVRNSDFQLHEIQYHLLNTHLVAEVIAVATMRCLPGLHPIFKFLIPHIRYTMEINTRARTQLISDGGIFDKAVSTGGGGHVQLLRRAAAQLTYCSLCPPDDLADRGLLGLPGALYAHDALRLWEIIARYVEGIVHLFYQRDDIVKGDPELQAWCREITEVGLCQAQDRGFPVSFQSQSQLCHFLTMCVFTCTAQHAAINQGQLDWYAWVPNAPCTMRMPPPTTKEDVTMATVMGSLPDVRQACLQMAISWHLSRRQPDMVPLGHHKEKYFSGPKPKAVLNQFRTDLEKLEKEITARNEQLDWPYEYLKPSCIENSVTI

Compound | Potency
Cc1ccc(-c2csc(N(C)C(=O)c3c(C)nn(-c4ccccc4)c3Cl)n2)cc1 | inactive
Cc1nc2ccccc2n1CCc1nc2c3ccccc3nc(=S)n2[nH]1 | inconclusive: 44.7 µM [inhibitor, partial curve, poor fit]
O=C(NC(=S)Nc1cccc(Cl)c1N1CCCCC1)c1ccco1 | inconclusive: 31.6 µM [inhibitor, partial curve, poor fit]
COc1ccc(/C=C2\CCc3ccccc3C2=O)cc1CN1CCOCC1 | inconclusive: 89.1 µM [inhibitor, single point]
CCC(C)Sc1c(C)cnc2c1c(=O)n(C)c(=O)n2C (configuration not stated) | inconclusive: 6.31 µM [inhibitor, full curve, poor fit]
O=C(Nc1nc(-c2ccc(S(=O)(=O)N3CCCCCC3)cc2)cs1)c1ccccc1 | inactive
COc1ccccc1N1CCN(C(=O)CN(Cc2ccccc2)S(C)(=O)=O)CC1 | inactive
O=C(NC1CCCCC1)Oc1cc2oc(=O)sc2cc1Br | inconclusive: 70.8 µM [inhibitor, partial curve, poor fit]
Cc1nc(S/C(=C/c2ccc(-c3cccc(Cl)c3)o2)C(=O)O)n[nH]1 | inactive
CN1CC(=O)N(c2ccccc2)Cc2c(NCCOc3ccccc3)ncnc21 | inconclusive: 79.4 µM [inhibitor, partial curve]
COc1ccc(C)cc1NC1(c2ccccc2)C(=O)c2ccccc2C1=O | inactive
COc1ccc(NC(C)C(=O)N(C)Cc2cccc(F)c2)c(OC)c1 (configuration not stated) | inactive
Cc1ccc(Nc2nnc(-c3ccc(C)c(S(N)(=O)=O)c3)c3ccccc23)c(C)c1 | inconclusive: 89.1 µM [inhibitor, partial curve, poor fit]
COc1cccc(-c2cnc3c(NC(C)=O)cc(-c4ccsc4)cn23)c1 | inconclusive: 79.4 µM [inhibitor, partial curve, poor fit]
Cc1ccc(CNC(=S)Nc2ccccc2Cl)cc1 | active: 44.7 µM
Cc1cccc(C(=O)OCC(=O)c2cccs2)c1O | inactive
Oc1c(C(c2ccccc2Cl)N2CCCC2)ccc2cccnc12 (configuration not stated) | inconclusive: 44.7 µM [inhibitor, partial curve, poor fit]
FC(F)(F)c1ccc(N2CCOCC2)c(NC2=NCCCCC2)c1 | inconclusive: 31.6 µM [inhibitor, single point]
N#CC1=C(N)Oc2cc(O)c(Cl)cc2C1c1ccccc1F (configuration not stated) | inconclusive: 39.8 µM [inhibitor, partial curve, poor fit]

Compound | Potency
CC(C)c1ccc(CCNC(=S)Nc2ccc(Cl)cc2Cl)cc1 | active: 14.1 µM
CCOC(=O)C1=CNc2nncn2C1(O)C(F)(F)F (configuration not stated) | inactive
Cc1ccccc1Nc1nc(N)nc(COC(=O)CCS(=O)(=O)c2ccc(Cl)cc2)n1 | inconclusive: 126 µM [inhibitor, single point]
O=C(/C=C/c1ccccc1)NC(NC(=S)Nc1cc(Cl)ccc1Cl)C(Cl)(Cl)Cl (configuration not stated) | inactive
CCc1ccc2c(c1)-c1ccccc1S(=O)(=O)N2CC(=O)Nc1cccc(Cl)c1C | inactive
Cc1ccc(C(=O)NCC(=O)N2CCC(Cc3ccccc3)CC2)cc1 | inactive
Cc1nc(NC(=O)CNC(=O)c2ccoc2)sc1C | inactive
CCNc1ncc2nc(-c3cn(C)c4ccccc34)c(=O)n(Cc3cccs3)c2n1 | inconclusive: 17.8 µM [inhibitor, single point]
COc1cccc(CNc2sc3c(c2C(=O)Nc2ccc(OC)cc2OC)CCC3)c1 | inactive
CCCCCCn1cc(CN2CC(N3CCN(Cc4ccccc4F)CC3)CS2(=O)=O)nn1 (configuration not stated) | inconclusive: 35.5 µM [inhibitor, partial curve, poor fit]
NC(=O)C1CCN(CC(=O)Nc2nccs2)CC1 | inconclusive: 28.2 µM [inhibitor, single point]
CC(C)CCNC(=S)Nc1ccc(Br)cc1 | inconclusive: 50.1 µM [inhibitor, partial curve, poor fit]
Cc1cccc(OCCc2noc(C3CCCCN3)n2)c1 (configuration not stated) | inactive
O=C(NC1(C(=O)O)CCCCC1)C1CCCO1 (configuration not stated) | inconclusive: 25.1 µM [inhibitor, single point]
COc1ccc(NC(=O)c2[nH]c(C)c(C(C)=O)c2C)cc1Cl | inactive
CCCCCn1nc(C(=O)Nc2cccc(Br)c2)c2ccccc2c1=O | inactive
COc1ccccc1-c1oc2ccccc2c1C#CCCCCO | inconclusive: 44.7 µM [inhibitor, partial curve, poor fit]
O=C(COc1c(CO)cc(F)cc1CO)Nc1ccc(Cl)cc1F | inconclusive: 100 µM [inhibitor, partial curve, poor fit]

No new results follow: entries from further up.
Compound | Potency
CC(C)CCNC(=S)Nc1ccc(Br)cc1 | inconclusive: 50.1 µM [inhibitor, partial curve, poor fit]
Cc1cccc(OCCc2noc(C3CCCCN3)n2)c1 (configuration not stated) | inactive

Reference: PubChem BioAssay AID1671190 (National Center for Advancing Translational Sciences (NCATS), 2021)
